Structures can show the parent of a compound that is named as a salt. Some of the results follow. Single values are uncertain here, since repeats match poorly.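 Cells: ReNCell VM human fetal ventral-midbrain neural progenitors, differentiated mitogen-free. Blinded raters compared doublecortin-stained (early neurons) or tyrosine hydroxylase-stained (dopaminergic neurons) images with untreated wells, where 0 means no change. After repeats and both raters were averaged, compounds scoring 2 or above became hits for retesting.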
The compounds below were run on ReNCell VM (assay: dopaminergic neuron differentiation score (TH+ cell fraction vs untreated, manual image score) (score (0 to 3)); higher = more TH+ dopaminergic neuron differentiation). Conditions: library: Phytochemical; 2 uM; 4 weeks; BDNF 10 ng/ml + GDNF 10 ng/ml.

Dopaminergic neuron differentiation score, inactive:
CN1C(=O)CC[C@H]1c1cccnc1 [Cotinine (-)] 0
O=C(O)c1cccc(C(=O)O)n1 [2,6-Pyridinedicarboxylic Acid] 0
COC(=O)[C@H]1[C@H]2C[C@H]3c4[nH]c5ccccc5c4CCN3C[C@@H]2CC[C@@H]1O [Corynanthine hydrochloride] 0
COc1ccc2cc3n(c(=O)c2c1OC)CCc1cc2c(cc1-3)OCO2 [Berlambine] 0
COc1cc2ccc(=O)oc2cc1O [Scopoletin] 0

Same assay, conditions: library: Prestwick; 2 uM; 4 weeks; BDNF 10 ng/ml + GDNF 10 ng/ml

Dopaminergic neuron differentiation score, inactive:
CCOC(=O)n1ccn(C)c1=S [Carbimazole] 0
CN1CCN(C(c2ccccc2)c2ccccc2)CC1 [Cyclizine hydrochloride] 0
CN1CCN(C(c2ccccc2)c2ccc(Cl)cc2)CC1 (stereo not drawn) [Chlorcyclizine hydrochloride] 0
Cc1onc(-c2ccccc2Cl)c1C(=O)N[C@@H]1C(=O)N2[C@@H]1SC(C)(C)[C@@H]2C(=O)O [Cloxacillin sodium salt] 0
Nc1ccc(S(=O)(=O)Nc2ccccn2)cc1 [Sulfapyridine] 0
CNNCc1ccc(C(=O)NC(C)C)cc1 [Procarbazine hydrochloride] 0
CC[C@H]1OC(=O)[C@H](C)[C@@H](O[C@H]2C[C@@](C)(OC)[C@@H](O)[C@H](C)O2)[C@H](C)[C@@H](O[C@@H]2O[C@H](C)C[C@H](N(C)C)[C@H]2O)[C@](C)(O)C[C@@H](C)/C(=N\OCOCCOC)[C@H](C)[C@@H](O)[C@]1(C)O [Roxithromycin] 0
CC1Cc2ccccc2N1NC(=O)c1ccc(Cl)c(S(N)(=O)=O)c1 (stereo not drawn) [Indapamide] 0

Same assay, conditions: library: Spectrum; 2 uM; 4 weeks; BDNF 10 ng/ml + GDNF 10 ng/ml

Dopaminergic neuron differentiation score, inactive:
Oc1cccc(O)c1 0
CCCCOC(=O)c1ccc(N)cc1 0
O=C(OOC(=O)c1ccccc1)c1ccccc1 0
CC(=O)OCC(=O)[C@@]1(O)[C@H](OC(C)=O)C[C@H]2[C@@H]3CCC4=CC(=O)C=C[C@]4(C)[C@@]3(F)[C@@H](O)C[C@@]21C 0
COc1ccc(C(=O)/C=C/c2ccccc2)cc1 0
C#CCN(C)Cc1ccccc1 0
CNC[C@H](O)c1cccc(O)c1 0
CCC1(C)CC(=O)NC1=O (stereo not drawn) 0
COc1cc(C/C=C/c2ccccc2)c(OC)cc1O 0
O=C1c2cccc(O)c2C(=O)c2c(O)cccc21 0
Cc1ccnc(NS(=O)(=O)c2ccc(N)cc2)n1 0
CC/C(=C(\c1ccccc1)c1ccc(OCCN(C)C)cc1)c1ccccc1 0

Dopaminergic neuron differentiation score, active:
COc1c(-c2coc3cc4c(cc3c2=O)CC(O)C(C)(C)O4)ccc2c1C=CC(C)(C)O2 (stereo not drawn) 3

Same assay, conditions: library: Tocriscreen; 2 uM; 4 weeks; BDNF 10 ng/ml + GDNF 10 ng/ml

Dopaminergic neuron differentiation score, inactive:
Cc1[nH]c(/C=C2\C(=O)Nc3ccc(S(=O)(=O)Cc4c(Cl)cccc4Cl)cc32)c(C)c1C(=O)N1CCC[C@@H]1CN1CCCC1 0
Clc1cccc(Nc2nnc(-c3ccccc3)c3ccccc23)c1 0
CCO/C(O)=C1\C(C)=NC(c2ccccc2)=C(C(=O)OCc2ccc([N+](=O)[O-])cc2)C1C#Cc1ccccc1 (stereo not drawn) 0
Oc1cc2c(c(Cl)c1O)CCNCC2c1ccccc1 (stereo not drawn) 0
Cc1ccc(CC2(O)CCN(CCOc3ccc(O)cc3)CC2)cc1 0
O=C(Nc1ccc(C(F)(F)F)cn1)N1CCN(c2ncccc2C(F)(F)F)CC1 0
C=CC(=O)c1ccc2ccccc2c1 0

Two successive entries already listed, quoted:
Dopaminergic neuron differentiation score, inactive:
Cc1[nH]c(/C=C2\C(=O)Nc3ccc(S(=O)(=O)Cc4c(Cl)cccc4Cl)cc32)c(C)c1C(=O)N1CCC[C@@H]1CN1CCCC1 0
Clc1cccc(Nc2nnc(-c3ccccc3)c3ccccc23)c1 0

From the supplement of paper PMC4635364
